Measured values as given in PubChem BioAssay AID248 (DTP/NCI, 2004).
The list shows only some results of the screen, not a fair sample: it gathers tests that were run many times, whatever their T/C, doses with no T/C, and many T/C values between a quarter and a half above the control. Further doses and runs are listed elsewhere. T/C gives the treated animals as a percentage of the vehicle group. Some doses have a count of surviving animals in place of a T/C: the source files T/C as zero there, which appears to mark a toxic dose or a test without result, not a measured value. Some survivor counts are full or nearly so, which does not show that the dose was tolerated: survival well below the control is almost never listed, so the zero probably covers shortened survival too. Counts of survivors are from the toxicity check (mostly the fifth day) where no day follows; animals may have died later. Schedules are NCI's codes, read here as Q, the interval in days (D) or hours (H), X, the number of doses. For survival time, this PubChem deposit counts one and a half times the control or more as active, and values a quarter to a half above the control carry no call in these data; other NCI protocols may use other cut-offs. Some doses were run more than once; the values are given in rising order. Some T/C values are followed by the survivors on the day toxicity was checked, most often the fifth; without a count, all were alive then.

System: L1210 leukemia ip in BDF1 mice, survival T/C
Experiment: NCI In Vivo Anticancer Drug Screen. Data for tumor model L1210 Leukemia (intraperitoneal) in B6D2F1 (BDF1) mice
Conditions: higher T/C = longer survival
[1] = T/C endpoint: mean survival time, dose: 400.0 mg/kg/injection, schedule: Q01DX001 (ip), vehicle: saline
[2] = T/C endpoint: mean survival time, dose: 400.0 mg/kg/injection, schedule: Q01DX001 (ip), vehicle: carboxymethylcellulose (CMC)

With `CCCCCC(Oc1ccc(Cl)cc1C)C(=O)O` (stereo unspecified) the survivor count (T/C endpoint: mean survival time, dose: 400.0 mg/kg/injection, schedule: Q04DX002 (ip), vehicle: Klucel (hydroxypropylcellulose) (HPC)) was 3 of 3.
`Cc1c2cccc(Sc3ccc(F)cc3)c2c2c3c(cccc13)[S+](c1ccc(F)cc1)C2` (stereo unspecified) was tested, and the survivor count (T/C endpoint: mean survival time, dose: 100.0 mg/kg/injection, schedule: Q01DX001 (ip), vehicle: Klucel (hydroxypropylcellulose) (HPC)) was 1 of 6, the survivor count (T/C endpoint: mean survival time, dose: 200.0 mg/kg/injection, schedule: Q01DX001 (ip), vehicle: Klucel (hydroxypropylcellulose) (HPC)) was 0 of 6 and the survivor count (T/C endpoint: mean survival time, dose: 400.0 mg/kg/injection, schedule: Q01DX001 (ip), vehicle: Klucel (hydroxypropylcellulose) (HPC)) was 0 of 6.
With `CC1(C)N=C(N)N=C(N)N1c1cccc(OCCCOc2cccc([N+](=O)[O-])c2)c1` the survivor count (T/C endpoint: mean survival time, dose: 100.0 mg/kg/injection, schedule: Q01DX001 (ip), vehicle: saline) was 1 of 6, the survivor count (T/C endpoint: mean survival time, dose: 200.0 mg/kg/injection, schedule: Q01DX001 (ip), vehicle: saline) was 0 of 6 and the survivor count [1] was 0 of 6.
For `N=c1nc2n(cc1F)[C@@H]1O[C@H](CO)[C@@H](O)[C@@H]1O2`, the T/C (T/C endpoint: mean survival time, dose: 100.0 mg/kg/injection, schedule: Q04DX002 (ip), vehicle: Klucel (hydroxypropylcellulose) (HPC)) was 134 and 135 % of control, the T/C (T/C endpoint: mean survival time, dose: 200.0 mg/kg/injection, schedule: Q04DX002 (ip), vehicle: Klucel (hydroxypropylcellulose) (HPC)) was 138 and 145 % of control and the T/C [1] was 125 and 129 % of control. The T/C (T/C endpoint: mean survival time, dose: 400.0 mg/kg/injection, schedule: Q01DX009 (ip), vehicle: Klucel (hydroxypropylcellulose) (HPC)) was 139 % of control, the T/C (T/C endpoint: mean survival time, dose: 800.0 mg/kg/injection, schedule: Q01DX001 (ip), vehicle: saline) was 136 and 145 % of control and the T/C (T/C endpoint: mean survival time, dose: 1200.0 mg/kg/injection, schedule: Q01DX001 (ip), vehicle: Klucel (hydroxypropylcellulose) (HPC)) was 137 % of control. The T/C (T/C endpoint: mean survival time, dose: 1200.0 mg/kg/injection, schedule: Q01DX001 (ip), vehicle: saline) was 141 and 142 % of control, the T/C (T/C endpoint: mean survival time, dose: 1600.0 mg/kg/injection, schedule: Q01DX001 (ip), vehicle: Klucel (hydroxypropylcellulose) (HPC)) was 126 % of control and the T/C (T/C endpoint: mean survival time, dose: 1600.0 mg/kg/injection, schedule: Q01DX001 (ip), vehicle: saline) was 146 [5 of 6 alive] and 147 % of control. The T/C (T/C endpoint: mean survival time, dose: 2000.0 mg/kg/injection, schedule: Q01DX001 (ip), vehicle: saline) was 149 % of control, the survivor count (T/C endpoint: median survival time, dose: 200.0 mg/kg/injection, schedule: Q03HX024 (ip), vehicle: water) was 8 of 8 and the survivor count (T/C endpoint: median survival time, dose: 400.0 mg/kg/injection, schedule: Q03HX024 (ip), vehicle: water) was 5 of 8. For the same compound, the T/C (T/C endpoint: median survival time, dose: 800.0 mg/kg/injection, schedule: Q01DX001 (oral), vehicle: water) was 130 % of control [7 of 8 alive], the survivor count (T/C endpoint: median survival time, dose: 800.0 mg/kg/injection, schedule: Q01DX009 (ip), vehicle: water) was 7 of 8 and the survivor count (T/C endpoint: median survival time, dose: 800.0 mg/kg/injection, schedule: Q03HX024 (ip), vehicle: water) was 1 of 8. The T/C (T/C endpoint: median survival time, dose: 1200.0 mg/kg/injection, schedule: Q01DX001 (ip), vehicle: water) was 144 % of control [7 of 8 alive], the T/C (T/C endpoint: median survival time, dose: 1200.0 mg/kg/injection, schedule: Q01DX001 (oral), vehicle: water) was 130 % of control [6 of 8 alive] and the survivor count (T/C endpoint: median survival time, dose: 1600.0 mg/kg/injection, schedule: Q01DX001 (ip), vehicle: water) was 5 of 8. For the same compound, the survivor count (T/C endpoint: median survival time, dose: 1600.0 mg/kg/injection, schedule: Q01DX001 (oral), vehicle: water) was 4 of 8, the survivor count (T/C endpoint: median survival time, dose: 2000.0 mg/kg/injection, schedule: Q01DX001 (ip), vehicle: water) was 3 of 8 and the survivor count (T/C endpoint: median survival time, dose: 2000.0 mg/kg/injection, schedule: Q01DX001 (oral), vehicle: water) was 3 of 8.
In the case of `C[C@H]1CCC/C=C/[C@@H]2C[C@H](O)C[C@H]2[C@H](O)/C=C/C(=O)O1`, the survivor count [2] was 0 of 4.
With `CCN(CC)CCCNc1cc(OC)cc2cccnc12` the survivor count (T/C endpoint: mean survival time, dose: 40.0 mg/kg/injection, schedule: Q01DX001 (ip), vehicle: carboxymethylcellulose (CMC)) was 2 of 4, the survivor count (T/C endpoint: mean survival time, dose: 80.0 mg/kg/injection, schedule: Q01DX001 (ip), vehicle: carboxymethylcellulose (CMC)) was 0 of 4 and the survivor count (T/C endpoint: mean survival time, dose: 100.0 mg/kg/injection, schedule: Q01DX001 (ip), vehicle: carboxymethylcellulose (CMC)) was 0 of 4. For the same compound, the survivor count (T/C endpoint: mean survival time, dose: 200.0 mg/kg/injection, schedule: Q01DX001 (ip), vehicle: carboxymethylcellulose (CMC)) was 0 of 4 and the survivor count [2] was 0 of 4.
`CCNCCNC` was tested, and the survivor count (T/C endpoint: mean survival time, dose: 200.0 mg/kg/injection, schedule: Q01DX009 (ip), vehicle: saline) was 5 of 6 and the survivor count (T/C endpoint: mean survival time, dose: 400.0 mg/kg/injection, schedule: Q04DX003 (ip), vehicle: saline) was 1 of 6.
